These are yes or no findings as the source states them, for the method shown. Binding seen in cells or lysates may run through a third protein. For part of these data: Binding calls can cover weak binding; strength is not graded here. For part of these data: Tags and fused reporters may be left off the sequences shown. Blank lines part the entries; values can stand above or below the binder they belong to.
Experiments:
[1] = biological target: GST-Trim2 (Xenopus tripartite motif containing 2) (Xenopus laevis) (UniProt Q6GQA4); experiment: pull-down; 50 ug GST-Trim2 added to 1 mL (1 mg protein) lysate of HEK293T cells transfected with Flag-Alix, 1 h at 4 C, GSH-Sepharose beads, washed with IP lysis buffer, Western blot; GST alone as control; only the target purified
[2] = biological target: GST-Trim2 (Xenopus tripartite motif containing 2) (Xenopus laevis) (UniProt Q6GQA4); experiment: pull-down; GST-Trim2 as bait on HEK293T cells (lysate), tested for NEFL; detection not stated; only the target purified
[3] = biological target: GST-Trim2 (Xenopus tripartite motif containing 2) (Xenopus laevis) (UniProt Q6GQA4); experiment: pull-down; GST-Trim2 as bait on Xenopus embryonic lysates, tested for NEFL; detection not stated; only the target purified

Protein sequences, listed by entry. Tags and fused reporters are not part of them. Lines headed by an entry give the natural chain unless they say otherwise; changes in a name come on top.
UniProt Q6GQA4: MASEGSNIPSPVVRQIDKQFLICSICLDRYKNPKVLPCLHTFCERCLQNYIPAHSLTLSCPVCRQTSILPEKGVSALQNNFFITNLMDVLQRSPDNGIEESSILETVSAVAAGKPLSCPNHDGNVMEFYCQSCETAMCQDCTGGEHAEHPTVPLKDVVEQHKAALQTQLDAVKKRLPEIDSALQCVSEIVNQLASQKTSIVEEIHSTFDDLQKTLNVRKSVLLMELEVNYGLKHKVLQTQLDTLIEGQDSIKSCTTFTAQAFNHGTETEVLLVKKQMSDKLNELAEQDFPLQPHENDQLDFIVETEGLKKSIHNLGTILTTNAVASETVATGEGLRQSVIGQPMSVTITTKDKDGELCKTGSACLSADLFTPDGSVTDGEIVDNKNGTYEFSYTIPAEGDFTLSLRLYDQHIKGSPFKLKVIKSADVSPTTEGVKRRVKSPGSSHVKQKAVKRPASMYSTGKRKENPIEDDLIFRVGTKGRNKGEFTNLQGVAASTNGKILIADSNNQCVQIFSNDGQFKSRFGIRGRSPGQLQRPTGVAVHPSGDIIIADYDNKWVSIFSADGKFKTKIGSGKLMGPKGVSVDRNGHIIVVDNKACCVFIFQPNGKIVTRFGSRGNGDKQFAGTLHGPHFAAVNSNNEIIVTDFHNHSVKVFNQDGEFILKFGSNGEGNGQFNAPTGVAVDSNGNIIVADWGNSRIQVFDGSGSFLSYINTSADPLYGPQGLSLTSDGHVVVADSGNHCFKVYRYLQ

binding [1]: binds
B1: Flag-Alix (protein, UniProt Q9W6C5-1 1-867)
chain: MATFISVPLKKTSEVDLVKPLSKYIHNTYPSGEDQTEYCRAVDELNKLRKSAVGRPLDKHETSLETVMRYYDQLCSVEPKFPFTESQLCLTFTWKDAFDKGSIFGGSVKLALPSLGYEKTCVLFNIGALASQIASEQNLDNDEALKAASKFYQLASGAFSHIKDTVLSSLNRDPTVDISPDTVGTLSLIMLAQAQEVFFLKATRDKMKDAVIAKLANQAADYYGDAFKQCQYKDTLSKEVFPILAAKHCIMQAHAEYHQSVLAKQQKKFGEEIGRLQHASDLVKTVSSRYDEYVNVKDLADKINRALTAAKKDNDFIYHDRVPDLKDLDPVGKASLVKSTPVNVPLSQKYTDLFEKMVPLAVQQCLSVYNQRKSELINSTIAQMRDATIFANGVLASLNLPAAVEDVSGDSIPQSILNKSKTVIEQGGIQTIGQLIRDLPELLQRNKEILEESLKFLDEEEATDNDLKAKFKDRWQRTPSTELYKPLRSEGSNFRNVLDKAIGADAVVKERYQSHREAIVILCKPEAELNAAIPSANPAKTMQGSEVVTVLKSLLNKLDDMKKEREQLENDIKSVNFDMTTKFLTALAQDGAVNEEAISVTELDQIYGSYTYKVQENLKKQEDLLNNIQSAHQEFSKMKQSNSEANLREEVLKNLAVGHDNYIELVANLKEGTKFYNDLTDILLKFQCKCSDIVFARKTERDELLKDIQQSIAREPSAPSIPQVPSYQSAPSSISTNIATSSIPTPAPRTVFSAKQPPPRPPPPAMPSASPVPASAAQASNPAPTAAADSSQPPSNTIPSQAQGPPYPSYPGYPGYYGMPMPVGYNPYMYGQQTIPPYMYQPPSGQPPYPAQQPSFSYPQQPFFPPQ

binding [2]: no binding
B2: NEFL (Neurofilament Light), from HEK293T cells (protein, UniProt P07196 1-543)
chain: MSSFSYEPYYSTSYKRRYVETPRVHISSVRSGYSTARSAYSSYSAPVSSSLSVRRSYSSSSGSLMPSLENLDLSQVAAISNDLKSIRTQEKAQLQDLNDRFASFIERVHELEQQNKVLEAELLVLRQKHSEPSRFRALYEQEIRDLRLAAEDATNEKQALQGEREGLEETLRNLQARYEEEVLSREDAEGRLMEARKGADEAALARAELEKRIDSLMDEISFLKKVHEEEIAELQAQIQYAQISVEMDVTKPDLSAALKDIRAQYEKLAAKNMQNAEEWFKSRFTVLTESAAKNTDAVRAAKDEVSESRRLLKAKTLEIEACRGMNEALEKQLQELEDKQNADISAMQDTINKLENELRTTKSEMARYLKEYQDLLNVKMALDIEIAAYRKLLEGEETRLSFTSVGSITSGYSQSSQVFGRSAYGGLQTSSYLMSTRSFPSYYTSHVQEEQIEVEETIEAAKAEEAKDEPPSEGEAEEEEKDKEEAEEEEAAEEEEAAKEESEEAKEEEEGGEGEEGEETKEAEEEEKKVEGAGEEQAAKKKD

binding [3]: no binding
B3: NEFL (Neurofilament Light), in Xenopus embryonic lysates (protein, UniProt P35616 1-544)
chain: MSSYSYDPYYTPYKRRVVESSPRVHIRSSYVSPSRTTYSPLVSTTMRRSYATSSSSSFLPSVDTMDLSQVAAISSDLKIVRTQEKVQLQDLNDRFANFIERVHELEQRNKVLEAELLLLRQKHNEPSRLRDMYEKEVRDVRLAQEEASGDRQTLRNERERLEDALRVLQGRYEEEAMSREDSEARLLDVRKEADMAALARVELEKRMDSLLDEIAFLKKVHEEELSQLQSQVQYAQVSLEVEVAKPDLSSALRDIRGQYEKLAAKNMQSAEEWFKSRFTVLTQSAARNTDAVRAAKDEMSESRRMLSAKGLEIEACRGVNEALQRQIQELEDKQSGEIAGMQDAINKLEEELRNTKSEMARYLKEYQDLLNVKMALDIEIAAYRKLLEGEETRLSFSGVGAITSGYTQSAPVFGRSAYSLQSSSYMTSRAFPTYYSSHVQEEQLDIEETIESSRAEEAKAEAPEEEEEEAAEEEGEGGEEAEEEGEEGEEAKEEEAEEEGGQEKEEEGEEGEGEAEAEGDGEEEGESKGDEAAEEESEKKEKKK
